Experimental findings from paper PMC7433896 are described below.

The chains behind the UniProt entries cited, without tags or fusion partners. Residues count along the entry.
UniProt O70174, residues 31-629: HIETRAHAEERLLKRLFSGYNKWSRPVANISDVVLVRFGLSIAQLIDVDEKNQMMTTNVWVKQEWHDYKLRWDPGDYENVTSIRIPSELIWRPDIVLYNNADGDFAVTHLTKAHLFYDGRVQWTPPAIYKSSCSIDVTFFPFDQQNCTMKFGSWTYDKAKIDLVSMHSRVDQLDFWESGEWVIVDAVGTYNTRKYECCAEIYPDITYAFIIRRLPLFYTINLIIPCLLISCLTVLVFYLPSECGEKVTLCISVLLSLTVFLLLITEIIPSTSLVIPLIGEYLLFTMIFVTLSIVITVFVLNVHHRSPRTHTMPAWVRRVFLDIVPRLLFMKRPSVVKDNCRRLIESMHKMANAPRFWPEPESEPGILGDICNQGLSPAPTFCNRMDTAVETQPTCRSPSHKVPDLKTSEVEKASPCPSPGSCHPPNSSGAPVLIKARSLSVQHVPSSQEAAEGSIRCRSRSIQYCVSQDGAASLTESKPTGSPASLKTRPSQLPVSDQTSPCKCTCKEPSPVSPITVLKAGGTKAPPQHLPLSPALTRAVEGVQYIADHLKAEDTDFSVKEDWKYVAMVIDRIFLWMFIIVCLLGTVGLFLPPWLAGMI

These are yes or no findings as the source states them, for the method shown. In cells and extracts the contact can be indirect. Some entries that bind do so weakly or less than the wild type.

Assay [1] has as its target α4-mCherry nAChR subunit (cDNA plasmid, neuro-2a cells) (UniProt O70174). The assay is described as follows: FRET or BRET; pixel-based NFRET by confocal microscopy of neuro-2a cells transiently transfected with the tagged subunits and β2wt; control medium or 0.5 μM farnesene for 24 h. On the technique in general: Bioluminescence resonance energy transfer reports proximity on the nanometre scale.

Assay [2] deals with α4-mCherry nAChR subunit (α4-mCherry knock-in mice) (mouse) (UniProt O70174). In words: FRET or BRET; pixel-based normalized FRET (NFRET, PixFRET ImageJ plug-in) by confocal microscopy of 20 μm coronal brain sections of α4-mCherryα6-GFP mice, VTA dopamine neurons; mice treated with saline or 0.1 mg/kg farnesene.

Take “α4-mCherry nAChR subunit (cDNA plasmid, neuro-2a cells) (from UniProt O70174 31-629)”: in assay [1], the binding entry is on record as “binds”.
On the same count and under the same terms, under “α6-GFP nAChR subunit (cDNA plasmid, neuro-2a cells) (from UniProt Q9R0W9 31-494)” stands “binds”.
“α6-GFP nAChR subunit (α6-GFP BAC transgenic mice) (from UniProt Q9R0W9 31-494)”: in assay [2], the binding entry is listed as “binds”.
